{
  "source": "PubChem BioAssay AID1347075",
  "about": "(National Center for Advancing Translational Sciences (NCATS), 2019)",
  "note": "The whole screen tested about 400,000 compounds, of which about 5,500 (1.4%) were called active. Inconclusive means that the source gave no clear call. Such entries were picked first, then a sample of the others. Calls follow the shape of the dose curve; as a rule, active = well fitted cell-killing curve with a large enough effect; inconclusive = small, poorly fitted or top-dose-only effect, or effect the other way; inactive = flat fitted curve, though single readings scatter. Potencies beside an inconclusive call are fits to weak or partial responses and may not hold up. Potency is read from the fitted curve at half-maximal effect.",
  "data": [
    {"experiment": "qHTS assay for MDR1-selective chemotherapeutics: Primary screen using the parental adenocarcinoma cell KB-3-1; also: nearly all actives have a fitted effect of over 60% in size", "conditions": "KB-3-1 viability, CellTiter-Glo ATP luminescence, 72 h; series mostly up to 46.1 µM", "procedure,_shortened": "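Viability of parental KB-3-1 cells, measured by CellTiter-Glo luminescence, followed a 72 h incubation at 37 °C with pinned compounds in phenol-red-free DMEM containing 10% FBS.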", "values": [
      {"smiles": "COc1ccc(C2=NOC(C(=O)NCc3cccs3)C2)cc1OC", "note": "(stereo unspecified)", "Potency": "active: 4.61 µM"},
      {"smiles": "CN[C@H]1C[C@H]2c3[nH]c4ccc(-c5cccc(C)c5)cc4c3CCN2C[C@H]1[C@H](C)O", "Potency": "inconclusive: 29.1 µM [cytotoxic, single point]"},
      {"smiles": "Cc1ccc(S(=O)(=O)n2ccc3c(OCCOCCNCc4ccc(F)cc4)cccc32)cc1", "Potency": "inconclusive: 18.4 µM [cytotoxic, single point]"},
      {"smiles": "Cc1oc(-c2ccccc2F)nc1Cn1c(SCc2ccccc2F)nc2ccncc21", "Potency": "inactive"},
      {"smiles": "CC1(C)CN=C(N(Cc2ccccc2)C(=O)Nc2ccccc2)S1", "Potency": "inactive"},
      {"smiles": "COc1ccc(Oc2nc(C)cc(C)c2S(=O)(=O)c2ccc(C)cc2)cc1", "Potency": "inactive"},
      {"smiles": "O=C(Nc1nccs1)c1cn(-c2ccccc2)nc1-c1ccccc1", "Potency": "inconclusive: 29.1 µM [cytotoxic, single point]"},
      {"smiles": "COCCNc1nc(NCc2cccs2)nc2ccsc12", "Potency": "inactive"},
      {"smiles": "COc1ccc(OC)c(/C=C2\\SC(=S)N(NS(=O)(=O)c3ccccc3)C2=O)c1", "Potency": "inactive"},
      {"smiles": "Cc1cccc(/C=N/NC(=O)c2cc3c(s2)-c2ccccc2CC3)c1", "Potency": "inconclusive: 23.1 µM [cytotoxic, single point]"},
      {"smiles": "Cc1ccc(NC2SC(=O)N(CC(=O)O)C2=O)cc1", "note": "(stereo unspecified)", "Potency": "inactive"},
      {"smiles": "C(=C\\c1ccccc1)/CSc1nnc(-c2cnccn2)n1Cc1ccco1", "Potency": "inconclusive: 25.9 µM [cytotoxic, single point]"},
      {"smiles": "O=C(NCCC1CCCCN1S(=O)(=O)c1cccs1)C(=O)Nc1ccc(F)cc1", "note": "(stereo unspecified)", "Potency": "inconclusive: 25.9 µM [cytotoxic, single point]"},
      {"smiles": "COc1ccc(C(NC(=O)C2CCCCC2)c2c(O)ccc3ccccc23)cc1", "note": "(stereo unspecified)", "Potency": "inconclusive: 23.1 µM [cytotoxic, single point]"},
      {"smiles": "O=C1c2ccccc2C(=O)c2[nH]c(=O)[nH]c21", "Potency": "active: 5.17 µM"},
      {"smiles": "O=C(CN(C(=O)c1cccc([N+](=O)[O-])c1)C1CCCCC1)Nc1ccc(Cl)c([N+](=O)[O-])c1", "Potency": "inconclusive: 29.1 µM [cytotoxic, single point]"},
      {"smiles": "COCCCNC(=O)/C(C#N)=c1\\s/c(=C\\c2ccccc2OC(F)F)c(=O)n1CCCOC", "Potency": "inactive"},
      {"smiles": "CCn1nc(NC(=O)c2cccs2)c2cc3ccccc3nc21", "Potency": "inconclusive: 14.6 µM [rising, partial curve, poor fit]"},
      {"smiles": "CC(C)(C)NC(=S)N/N=C\\c1ccc(-c2ccc([N+](=O)[O-])cc2)o1", "Potency": "inconclusive: 29.1 µM [cytotoxic, single point]"},
      {"smiles": "COc1ccc2c(C)cc(=O)oc2c1", "Potency": "inactive"},
      {"smiles": "O=C(NCc1ccco1)c1ccc(Cl)c(S(=O)(=O)N2CCc3ccccc32)c1", "Potency": "inconclusive: 14.6 µM [cytotoxic, partial curve]"}
    ]}
  ]
}
